# Assay results reported in PubChem BioAssay AID2685 (National Center for Advancing Translational Sciences (NCATS), 2010).
# The campaign covered roughly 320,000 compounds. About 2,100 (0.66%) were called active. Inconclusive results, whose numbers are uncertain, are shown with a selection of clear calls. Calls follow the shape of the dose curve; as a rule, active = well fitted inhibition curve with a large enough effect in the signal ratio, with a control signal flat (not every such curve was filed as active); inconclusive = small, poorly fitted or top-dose-only effect, or effect the other way, or a change in a side signal; inactive = flat fitted curve, though single readings scatter; the % refers to the signal ratio. A potency beside an inconclusive call is a rough fit, not a confirmed value.
# Experiment: qHTS Assay for Lipid Storage Modulators in Drosophila S3 Cells
# Settings: BODIPY lipid droplet fluorescence, 18-24 h, cells fed with added oleic acid; lipid storage change, negative = inhibition: at 46.1 µM (top of the series) unless noted
# Procedure, shortened: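 Drosophila S3 cells got compounds at several concentrations plus oleic acid (400 uM solution). Laser-scanning cytometry with 488 nm excitation read lipid droplets at 500-530 nm and cells at 575-640 nm. Percent activity was relative to 20 uM Triacsin C.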
# % is scaled to controls: 0 for no effect and ±100 for the full control effect; potency is read from the fitted curve at half-maximal effect.
SMILES,"lipid storage change, negative = inhibition",Potency
O=C(NCc1ccccn1)c1ccc(NS(=O)(=O)c2ccccc2)cc1,inconclusive: 15%,
CCN(CC)S(=O)(=O)c1cccc(C(=O)N/N=C/c2cccc(O)c2O)c1,inconclusive: -52.3%,
COc1ccc(C(=O)Nc2cc(Cl)ccc2OC(=O)c2ccc(OC)cc2)cc1,inconclusive: -17.7%,
COc1ccccc1N1CCN(C(=O)C(=O)c2c(C)[nH]c3ccccc23)CC1,inconclusive: -56.9%,
CC(=O)Nc1ccc(NC(=O)CSc2nnnn2-c2ccc3c(c2)OCCO3)cc1,inconclusive: -9.46% [at 9.22 µM],
O=C(CSc1nc2ccccc2[nH]1)Nc1cc(C(F)(F)F)ccc1N1CCOCC1,,"inconclusive: 0.0731 µM [activator, full curve]"
COc1ccc(CN(C)C(=O)c2cnc(C)cn2)c(OC)c1OC,inconclusive: 17.2%,
Cc1ccc(Sc2ncccc2C(=O)NCC(c2ccc(F)cc2)N2CCOCC2)c(C)c1 (stereo not given),inconclusive,
COc1ccccc1N(C)S(=O)(=O)c1ccc(C(=O)NCc2ccc3c(c2)OCO3)cc1,,"inconclusive: 0.731 µM [activator, single point]"
CCOc1ccc(NC(=O)CCN2CCN(c3ccccc3OC)CC2)cc1,,"inconclusive: 29.1 µM [activator, single point]"
CCCC(C)n1[nH]c(=O)cc1N (stereo not given),inactive,
CS(=O)(=O)c1sc2nc(-c3cccs3)cc(-c3ccccc3)c2c1N,,"inconclusive: 0.651 µM [activator, full curve, poor fit]"
COC(=O)C1=C(N)Oc2cc(C)n(Cc3cccnc3)c(=O)c2C1c1cc(OC)ccc1OC (stereo not given),inconclusive: 1.55%,
Cc1ccc(S(=O)(=O)N2CCN(C(=O)c3ccco3)CC2)cc1C,inconclusive: 12.3%,
Cc1cc(NC(=O)C2CCCN2C(=O)Nc2cccc(Cl)c2)ccc1-n1cnnn1 (stereo not given),inconclusive: 16.9%,
COc1cccc(NC(=O)/C=C/c2ccco2)c1,inconclusive: 5.06%,
COc1cc(NS(=O)(=O)c2ccc(NC(=S)NC(=O)c3ccc(F)cc3)cc2)nc(OC)n1,inconclusive: 282%,
Cc1ccc(C(=O)OCC(=O)NCc2cccs2)c(C)c1,,"inconclusive: 29.1 µM [rising, single point]"
CCC(C)(C)C1CCC2(CC1)NC(=O)N(CC(=O)N(C)CCOc1ccc(Cl)cc1)C2=O (stereo not given),,"inconclusive: 18.4 µM [activator, single point]"
COc1ccc(/C=C/C(=O)Nc2cccc(C(C)=O)c2)cc1,,"inconclusive: 29.1 µM [activator, partial curve]"
CC(C)NCCOCCOc1ccc(Cl)cc1Br,inconclusive: 9.01%,
CC(=O)c1ccc(NC(=O)C(C)Sc2nnc(C3CCCCC3)o2)cc1 (stereo not given),,"inconclusive: 2.06 µM [activator, single point]"
C#CCSc1nnnn1-c1ccc(OCC)cc1,inconclusive: 6.12%,
O=C(O)C1CCN(C(=O)COc2ccc3c(c2)oc(=O)c2ccccc23)CC1,,"inconclusive: 0.731 µM [activator, full curve]"
COc1ccc(-c2cc(C(N)=O)nc(N3CCCCCC3)n2)cc1,,"inconclusive: 3.66 µM [activator, full curve]"

# Looked up one by one from above (2):
SMILES,"lipid storage change, negative = inhibition",Potency
COc1ccc(-c2cc(C(N)=O)nc(N3CCCCCC3)n2)cc1,,"inconclusive: 3.66 µM [activator, full curve]"
COc1ccccc1N1CCN(C(=O)C(=O)c2c(C)[nH]c3ccccc23)CC1,inconclusive: -56.9%,

# The list goes on:

SMILES,"lipid storage change, negative = inhibition",Potency
CCc1cccc(NC(=O)Cc2ccc([N+](=O)[O-])cc2)c1,inconclusive: 12.7%,
N#Cc1ccc(COc2cccc3cccnc23)cc1,inactive,
OC[C@@H](O)[C@H](O)C(/C=N/Nc1ccccc1)=N\Nc1ccccc1,inconclusive: 1.37%,
CCCCOC(=O)c1ccc(NC(=O)CSc2nnnn2C)cc1,inconclusive: -0.483%,
COC(=O)CSc1nnc(-c2cccc(NC(=O)c3ccc(C)cc3)c2)n1C,inconclusive: 10%,
O=C(c1cc(S(=O)(=O)N2CCOCC2)c(Cl)cc1Cl)N1CCCCC1,inconclusive: -31.4%,
CCN(CC)S(=O)(=O)c1ccc(C(=O)OCC(=O)NCc2ccco2)cc1,inconclusive: 10.1%,
COc1cc(Cl)c(CN2CCCC(CO)(Cc3ccccc3F)C2)cc1OC (stereo not given),inconclusive: -63.2%,
COc1ccc(CCNC(=O)CNC(=O)c2ccc3c(c2)OCO3)cc1OC,,"inconclusive: 23.1 µM [activator, partial curve]"
c1ccc(Nc2nc(N3CCNCC3)nc(N3CCOCC3)n2)cc1,inconclusive: 5.81%,
OCCCNCc1ccc(N(c2ccccc2)c2ccccc2)cc1,inconclusive: 199%,
CC(C)c1ccc(COC(=O)CN2C(=O)NC3(CCCCC3C)C2=O)cc1 (stereo not given),inconclusive,
Cc1cc2c(cc1S(=O)(=O)Nc1ccc(OC(F)(F)F)cc1)OCC(=O)N2,,"inconclusive: 29.1 µM [falling, single point]"
O=C(COC(=O)c1cccnc1Cl)NCC1CCCO1 (stereo not given),inconclusive: 51.2%,
O=C(Oc1ccccc1/C=C\C(=O)c1cc2ccccc2o1)c1ccccc1,,active: 14.6 µM
O=C(NCCc1ccc(Cl)cc1)C1CCC(CNc2c(N3CCCCC3)c(=O)c2=O)CC1 (stereo not given),inconclusive: 16.8%,
C=CCSc1ncccc1C(=O)NCCc1ccccc1,,"inconclusive: 23.1 µM [falling, single point]"
CCCCCN=Cc1c(C)[nH]n(-c2nc3ccccc3s2)c1=O,inconclusive: 26.6%,
COc1ccc(/C=N/Nc2nc(-c3ccc(Cl)cc3)cc(C(F)(F)F)n2)c(OC)c1,inconclusive: 26%,
COc1ccc(C2=NN(C(=O)c3ccco3)C(c3cc4ccccc4nc3Cl)C2)cc1 (stereo not given),,"inconclusive: 16.4 µM [activator, single point]"
CCOc1ccc(-c2c(C)n([O-])c3c([n+]2=O)CCCC3)cc1,inconclusive: 5.23%,
CCn1c(SCC(=O)NCc2ccco2)nnc1-c1ccncc1,,"inconclusive: 2.31 µM [falling, partial curve, poor fit]"
O=C(NNC(=O)c1ccccc1C(=O)O)c1ccc(O)cc1,inconclusive: 8.06%,
CC(C(=O)Nc1cc(C(F)(F)F)ccc1N1CCOCC1)N1C(=O)C2CC=CCC2C1=O (stereo not given),,active: 1.46 µM
Cc1ccc(-c2nc(SCC(=O)Nc3cc(S(=O)(=O)N4CCCCC4)ccc3Cl)n[nH]2)cc1,inconclusive: 25.6%,

# Entries listed so far with an aryl thioether with sulfur outside any ring:
SMILES,"lipid storage change, negative = inhibition",Potency
CC(=O)Nc1ccc(NC(=O)CSc2nnnn2-c2ccc3c(c2)OCCO3)cc1,inconclusive: -9.46% [at 9.22 µM],
O=C(CSc1nc2ccccc2[nH]1)Nc1cc(C(F)(F)F)ccc1N1CCOCC1,,"inconclusive: 0.0731 µM [activator, full curve]"
Cc1ccc(Sc2ncccc2C(=O)NCC(c2ccc(F)cc2)N2CCOCC2)c(C)c1 (stereo not given),inconclusive,
CC(=O)c1ccc(NC(=O)C(C)Sc2nnc(C3CCCCC3)o2)cc1 (stereo not given),,"inconclusive: 2.06 µM [activator, single point]"
C#CCSc1nnnn1-c1ccc(OCC)cc1,inconclusive: 6.12%,
CCCCOC(=O)c1ccc(NC(=O)CSc2nnnn2C)cc1,inconclusive: -0.483%,
COC(=O)CSc1nnc(-c2cccc(NC(=O)c3ccc(C)cc3)c2)n1C,inconclusive: 10%,
C=CCSc1ncccc1C(=O)NCCc1ccccc1,,"inconclusive: 23.1 µM [falling, single point]"
CCn1c(SCC(=O)NCc2ccco2)nnc1-c1ccncc1,,"inconclusive: 2.31 µM [falling, partial curve, poor fit]"
Cc1ccc(-c2nc(SCC(=O)Nc3cc(S(=O)(=O)N4CCCCC4)ccc3Cl)n[nH]2)cc1,inconclusive: 25.6%,
